Assay results reported in article doi:10.1101/2024.02.20.581153.
Where two headings read alike, the source gives them in different places. These are yes or no findings as the source states them, for the method shown. In cells and extracts the contact can be indirect. A yes stands for co-enrichment or nearness to the bait. Other partners may have been found. For some of these results: Sequences can lack the tags named with a protein.

Protein sequences, listed by entry. Tags and fused reporters are not part of them. Lines headed by an entry give the natural chain unless they say otherwise; changes in a name come on top. Residues count along the entry.
UniProt Q8NE86, 51-351, stated change not applied: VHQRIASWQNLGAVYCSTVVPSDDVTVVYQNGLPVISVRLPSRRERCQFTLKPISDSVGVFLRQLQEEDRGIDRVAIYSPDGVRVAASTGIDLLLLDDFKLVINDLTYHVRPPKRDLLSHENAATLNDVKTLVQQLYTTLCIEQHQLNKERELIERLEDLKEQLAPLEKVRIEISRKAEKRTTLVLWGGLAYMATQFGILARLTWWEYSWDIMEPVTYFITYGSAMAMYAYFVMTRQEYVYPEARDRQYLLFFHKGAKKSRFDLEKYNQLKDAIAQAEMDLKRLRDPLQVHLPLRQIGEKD

T1: MCUB (MCU-dominant negative beta subunit) fused at the C-terminus to a StrepII-HA-His6 tag (UniProt Q9NWR8)
T1 sequence: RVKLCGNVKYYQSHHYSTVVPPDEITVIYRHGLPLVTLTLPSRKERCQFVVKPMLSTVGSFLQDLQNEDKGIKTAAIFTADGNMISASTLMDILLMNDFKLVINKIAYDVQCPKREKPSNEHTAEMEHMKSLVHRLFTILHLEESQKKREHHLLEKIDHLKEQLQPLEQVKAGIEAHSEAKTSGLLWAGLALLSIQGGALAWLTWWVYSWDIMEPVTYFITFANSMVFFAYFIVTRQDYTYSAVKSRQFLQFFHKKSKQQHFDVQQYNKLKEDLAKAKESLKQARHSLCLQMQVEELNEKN

T2: EMRE (Essential MCU Regulator) fused at the C-terminus to a StrepII-HA-His6 tag (UniProt Q9H4I9)
T2 sequence: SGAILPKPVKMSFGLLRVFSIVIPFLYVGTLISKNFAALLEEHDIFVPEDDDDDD

T3: MCUB (MCU-dominant negative beta subunit) fused at the C-terminus to a StrepII-HA-His6 tag, Q9NWR8
T3 chain: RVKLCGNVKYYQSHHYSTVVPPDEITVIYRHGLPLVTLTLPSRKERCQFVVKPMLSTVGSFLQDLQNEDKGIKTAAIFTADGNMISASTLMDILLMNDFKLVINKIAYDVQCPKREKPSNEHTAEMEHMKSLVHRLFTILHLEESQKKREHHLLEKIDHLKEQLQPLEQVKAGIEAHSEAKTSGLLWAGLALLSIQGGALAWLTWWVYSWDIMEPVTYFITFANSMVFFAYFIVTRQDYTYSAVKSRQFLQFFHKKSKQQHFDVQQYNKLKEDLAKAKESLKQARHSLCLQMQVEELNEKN

B1: EF-hand domain-containing protein D1 (EFHD1) (protein, UniProt Q9BUP0 1-239)
chain: MASEELACKLERRLRREEAEESGPQLAPLGAPAPEPKPEPEPPARAPTASADAELSAQLSRRLDINEGAARPRRCRVFNPYTEFPEFSRRLIKDLESMFKLYDAGRDGFIDLMELKLMMEKLGAPQTHLGLKSMIKEVDEDFDGKLSFREFLLIFHKAAAGELQEDSGLMALAKLSEIDVALEGVKGAKNFFEAKVQALSSASKFEAELKAEQDERKREEEERRLRQAAFQKLKANFNT
B2: SLC25A25 (protein, UniProt Q6KCM7 1-469)
chain: MLCLCLYVPVIGEAQTEFQYFESKGLPAELKSIFKLSVFIPSQEFSTYRQWKQKIVQAGDKDLDGQLDFEEFVHYLQDHEKKLRLVFKSLDKKNDGRIDAQEIMQSLRDLGVKISEQQAEKILKSMDKNGTMTIDWNEWRDYHLLHPVENIPEIILYWKHSTIFDVGENLTVPDEFTVEERQTGMWWRHLVAGGGAGAVSRTCTAPLDRLKVLMQVHASRSNNMGIVGGFTQMIREGGARSLWRGNGINVLKIAPESAIKFMAYEQIKRLVGSDQETLRIHERLVAGSLAGAIAQSSIYPMEVLKTRMALRKTGQYSGMLDCARRILAREGVAAFYKGYVPNMLGIIPYAGIDLAVYETLKNAWLQHYAVNSADPGVFVLLACGTMSSTCGQLASYPLALVRTRMQAQASIEGAPEVTMSSLFKHILRTEGAFGLYRGLAPNFMKVIPAVSISYVVYENLKITLGVQSR
B3: MICU2, Q8IYU8 23-434 (protein)
chain: AVSRQAVRSPGPLAAAVAGAALAGAGAAWHHSRVSVAARDGSFTVSAQKNVEHGIIYIGKPSLRKQRFMQFSSLEHEGEYYMTPRDFLFSVMFEQMERKTSVKKLTKKDIEDTLSGIQTAGCGSTFFRDLGDKGLISYTEYLFLLTILTKPHSGFHVAFKMLDTDGNEMIEKREFFKLQKIISKQDDLMTVKTNETGYQEAIVKEPEINTTLQMRFFGKRGQRKLHYKEFRRFMENLQTEIQEMEFLQFSKGLSFMRKEDFAEWLLFFTNTENKDIYWKNVREKLSAGESISLDEFKSFCHFTTHLEDFAIAMQMFSLAHRPVRLAEFKRAVKVATGQELSNNILDTVFKIFDLDGDECLSHEEFLGVLKNRMHRGLWVPQHQSIQEYWKCVKKESIKGVKEVWKQAGKGLF

Experiments:
Assay in all cases: affinity purification with mass spectrometry
[1] = molecular target: T1, MCUB (MCU-dominant negative beta subunit) fused at the C-terminus to a StrepII-HA-His6 tag
[2] = molecular target: T2, EMRE (Essential MCU Regulator) fused at the C-terminus to a StrepII-HA-His6 tag
[3] = molecular target: T1, MCUB (MCU-dominant negative beta subunit) fused at the C-terminus to a StrepII-HA-His6 tag; remark: listed apart in the source
[4] = molecular target: MCU (Mitochondrial Calcium Uniporter) fused at the C-terminus to a StrepII-HA-His6 tag (UniProt Q8NE86)
[5] = molecular target: T3, MCUB (MCU-dominant negative beta …); details: remark: other sources report otherwise

| Molecule | binding [1] | binding [2] | further results |
| --- | --- | --- | --- |
| MCU (Mitochondrial Calcium Uniporter) (from UniProt Q8NE86 51-351) | binds |  |  |
| MICU1 (Mitochondrial Calcium Uptake 1) (from UniProt Q9BPX6 34-476) | binds |  |  |
| B1 |  | binds | binding [3]: binds |
| B2 |  | binds | binding [4]: binds |
| B3 |  |  | binding [5]: binds |
